# Experimental data from PubChem BioAssay AID493014 (National Center for Advancing Translational Sciences (NCATS), 2011).
# Hit rate of the full screen: of about 340,000 compounds, about 170 (0.05%) were called active. This list was built around the results that the source calls inconclusive (neither active nor inactive); the mix of calls is not that of the screen. Calls come from the whole dose curve; as a rule, active = well fitted inhibition curve with a large enough effect in the signal ratio, with a control signal flat (not every such curve was filed as active); inconclusive = small, poorly fitted or top-dose-only effect, or effect the other way, or a change in a side signal; inactive = flat fitted curve, though single readings scatter; the % refers to the signal ratio. Where the call is inconclusive, the potency comes from a doubtful curve fit.
# Assay: qHTS Assay to Find Inhibitors of Chronic Active B-Cell Receptor Signaling;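 for activity change, negative = inhibition: plate controls were basal doxycycline-induced cells for no effect and cells given 10 µM MG132 for full effect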
# Details: ABC-DLBCL IkBa-CBG/CBR reporter, luminescence ratio (green luciferase fused to IkBa over red control in TMD8 lymphoma cells), 4 h; activity change, negative = inhibition: at 46.1 µM (top of the series) unless noted
# Method in brief: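 Cell line TMD8 (human ABC DLBCL), stably expressing tet-inducible CBG68-IkBa fusion and CBR; IMDM/0.5% FBS; cpd up to 46 uM; dox induction, 4 h, 37C/5% CO2; dual luminescence; green/red ratio; MG132 control.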
# Potency is the fitted concentration of half-maximal effect.
SMILES,Potency,"activity change, negative = inhibition"
Cn1c(CC(=O)Nc2ccc(Cl)c(Cl)c2)nnc1SCC(=O)Nc1nccs1,"inconclusive: 0.058 µM [falling, full curve, poor fit]",
Cc1ccc(-n2c(SCC(=O)c3c(N)n(C)c(=O)n(C)c3=O)nc3sc4c(c3c2=O)CCCC4)c(C)c1,,inconclusive: 2.21%
CN(c1ccccc1)S(=O)(=O)c1ccc(C(=O)N2CCCC(C(F)(F)F)C2)cc1 (configuration not stated),,inconclusive: -1.09%
Cc1ccccc1N1CCN(CCCN2C(=O)CC(=C(c3ccccc3)c3ccccc3)C2=O)CC1,,inactive: 2.26%
COCC(C)n1c(SCc2cc(=O)n3cc(C)ccc3n2)nc2ccccc2c1=O (configuration not stated),,inactive: -5.08%
CN1CCN(/C=N/c2sc3c(c2C#N)CCCCC3)CC1,,inactive: 4.03%
O=C(NC1CCCCC1)c1cccc(OCc2ccccc2)c1,,inconclusive: 2.74%
O=C(Nc1ccccc1C(=O)NCC1CCCO1)c1ccco1 (configuration not stated),,inconclusive: -2.94%
CC(C)Cc1nc(C(N)=O)c2[nH]c(=O)n(-c3ccc(F)cc3)c2n1,,inconclusive: 9.21%
Nc1ccc2oc(C3CCCCC3)nc2c1,,inconclusive: -2.41%
CCc1cc(-c2onc(C)c2-c2cscn2)c(O)cc1OC,"inconclusive: 12.6 µM [cytotoxic, partial curve]",
Cc1ccc(-c2csc(NCCn3c(-c4ccncc4)nc4ccccc43)n2)cc1,,inconclusive: -16.8%
COc1ccc(/C=C/C(=O)O/N=C(\N)c2cccnc2)cc1OC,,inconclusive: -3.12%
COc1cccc(CNC(=O)COc2ccc(C(=O)c3ccccc3)cc2)c1,,inactive: -18.7%
Cc1noc(C)c1C(=O)N1CCOCC1,,inconclusive: 6.27%
Cc1ccc(CNCC(O)(c2ccccc2)c2ccc(F)cc2)cc1 (configuration not stated),,inconclusive: -21.2%
CCOC(=O)C1CCCN(CC(=O)Nc2c(C(=O)OC)[nH]c3ccccc23)C1 (configuration not stated),,inconclusive: 1.31%
O=C(O)c1cccc(Nc2nc(-c3ccc([N+](=O)[O-])cc3)nc3ccccc23)c1,,inconclusive: 0.249%
Cc1cc(C(=O)COC(=O)c2ccc(NC(=O)CC#N)cc2)c(C)n1C1CC1,"inconclusive: 23.1 µM [falling, single point]",
Cc1cc(SCC(=O)c2cc3ccccc3o2)nc2ccccc12,"inconclusive: 1.58 µM [falling, full curve, poor fit]",
CCOC(=O)c1c(C)[nH]c(C)c1C(=O)COC(=O)/C=C/c1ccco1,,inconclusive: 0.0769%
CCn1c(COc2c(C)cccc2C)nnc1SCC(=O)N1CCN(c2ccccc2)CC1,,inconclusive: -0.404%
N#CC(Nc1ccccc1)c1ccccc1OCc1ccccc1 (configuration not stated),,inconclusive: 8.86%
Cc1ccc(-c2nc(N)sc2-c2ccccc2)cc1C,,inactive: -6.64%
COc1cccc(/C=C/c2ccc3cccc(O)c3n2)c1OC,,inconclusive: -4.27%
OCC1(Cc2ccccc2)CCN(Cc2ccc(-c3ccco3)cc2)CC1,,inactive: -2.2%

# Three compounds from above, ordered by molecular weight, descending:
SMILES,Potency,"activity change, negative = inhibition"
Cc1ccc(-n2c(SCC(=O)c3c(N)n(C)c(=O)n(C)c3=O)nc3sc4c(c3c2=O)CCCC4)c(C)c1,,inconclusive: 2.21%
CN1CCN(/C=N/c2sc3c(c2C#N)CCCCC3)CC1,,inactive: 4.03%
Cc1noc(C)c1C(=O)N1CCOCC1,,inconclusive: 6.27%

# The listing continues:

SMILES,Potency,"activity change, negative = inhibition"
CC/C(=N\NC(=O)C1CCCC1)c1cccc(Br)c1,"inconclusive: 35.5 µM [falling, single point]",
COc1ccc(-c2nn(-c3ccccc3)cc2/C=C2/SC(=S)N(CCCC(=O)O)C2=O)c(C)c1,,inconclusive: -11.7%
COc1ccc2[nH]c(C)cc(=O)c2c1,,inactive: 10.8%
CCSc1nnc(NC(=O)c2cc(C)on2)s1,"inconclusive: 29.1 µM [rising, single point]",
c1cncc(CNc2ncnc3sc4c(c23)CCC4)c1,,inactive: -4.77%
CC(C)N(Cc1nc(-c2ccc(Cl)cc2)no1)C(=O)CCCN1C(=O)c2ccccc2C1=O,"inconclusive: 17.8 µM [falling, single point]",
O=C(Nc1cccnc1)Nc1ccccc1Cl,,inconclusive: -23.6%
CCOc1ccc2nc(NCCNC(=O)c3cc(OC)c(OC)c(OC)c3)c(C#N)cc2c1,,inactive: 1.59%
CCN1CCN(C(=O)c2ccc(-c3nc4ccccc4s3)s2)CC1,,inconclusive: 8.29%
O=C(CSc1ncnc2c1cnn2-c1ccc(F)cc1)NC1CCCC1,,inactive: 0.282%
Cc1cc(C(=O)CN2C(=O)C(=O)N(C3CCCC3)C2=O)c(C)n1-c1ccc(F)cc1,"inconclusive: 31.6 µM [rising, single point]",
N/C(=N\OC(=O)c1ccc(Br)cc1)c1ccccc1,,inconclusive: -1.55%
CCN(CC(=O)Nc1ccc2c(c1)OC(F)(F)O2)Cc1nc2ccccc2c(=O)[nH]1,"inconclusive: 0.517 µM [falling, full curve, poor fit]",
CC(/C=C/c1ccccc1)=N\NC(=O)CNC(=O)c1ccccc1Cl,,inconclusive: 0.0934%
C=CCn1c(NCc2ccc(N(C)C)cc2)nc2ccccc21,,inactive: -15.6%
COC(=O)c1sc(NC(=O)CSc2nnnn2-c2ccc(C)cc2C)nc1C,,inconclusive: -4.77%
Cc1ccc(C(=O)NCCc2csc(C)n2)cc1,,inactive: -14.6%
CCCSC1=C(C#N)C(c2cc(OC)ccc2OC)CC(=O)N1 (configuration not stated),,inconclusive: 1.5%
COc1cccc(-c2ccc(NC(=O)C3CCCN(CCCn4nc(C)cc4C)C3)cc2)c1 (configuration not stated),,inconclusive: -12.7%
COc1cccc(OCCN2CCN(c3ncnc4c3cnn4-c3ccccc3)CC2)c1,"inconclusive: 35.5 µM [rising, partial curve, poor fit]",
Cc1cccc2cc(CN(CC(C)C)S(=O)(=O)c3ccccc3)c(=O)[nH]c12,"inconclusive: 0.398 µM [falling, full curve, poor fit]",
CCOc1cc(NC(=O)CCl)c(OCC)cc1NC(C)=O,"inconclusive: 8.91 µM [falling, single point]",
O=S(=O)(N/N=C1\CC(c2ccccc2)Oc2ccccc21)c1ccccc1 (configuration not stated),,inconclusive: 11.3%
COC(=O)[C@@H]1CC[C@H](C)[C@@H](c2ccc(C)cc2)N1C(=O)c1ccc(/C=N/OC[C@@H](O)COCc2ccco2)cc1,,inconclusive: 0.473%
CCOC(=O)c1sc(NC(=O)c2ccc3ncsc3c2)nc1C,"inconclusive: 0.291 µM [rising, full curve, poor fit]",
O=C(c1ccc(Oc2ccccc2)cc1)c1nc2c(n1O)CCCC2,"inconclusive: 18.4 µM [falling, single point]",
